Results: patent US9289510 (dated 2016)

Assay: general procedure: Fmoc solid-phase peptide synthesis; 2-chlorotrityl chloride resin; HBTU/DIPEA; DIC or DIC/HOBt for capping groups
Conditions: for conjugation yield: conjugation step; for step yield: late stage modification step
[1] = whole synthesis, scale 0.04 mmol loading

Substance	conjugation yield	step yield	also measured
2′-O-methacryloylglycylphenylalanylleucylglycyl-paclitaxel (MA-GFLG-PTX)	68%	–	–
N-methacryloylglycylphenylalanylleucylglycyl-aminomalonic acid (MA-GFLG-malonic Acid)	–	76%	–
N-methacryloylglycylphenylalanylleucylglycyl-thiazolidine-2-thione (MA-GFLG-TT)	–	51.9%	–
N-methacyloylglycylphenylalanylleucylglycyl-gemcitabine (MA-GFLG-gemcitabine)	66.1%	–	–
N^α, N^ε-bis(4-maleimidomethyl-cyclohexanecarbonyl-glycylphenylalanlylleucylglycyl)lysine ((MAL-GFLG)2K)	–	–	crude mass [1]: 38 mg; crude yield [1]: 76%
N^α-(azidophenyl)-N^ε-(4-cyano-4-(phenylcarbonothioylthio)pentanoyl-glycylphenylalanylleucylglycyl)-lysine (CTP-GFLGK-N3; CTA 4)	–	–	crude mass (whole synthesis, scale 0.19 mmol loading): 85 mg
